Measurements: patent US20240002459A1, “Granulin Compositions and Uses Related Thereto” (Emory University, priority 2016, published 2024)
At least one structure is not confirmed: it was looked up by name or label, or the drawing left a doubt. *1 amine or outer side, *2 acyl side, *3 side chain or, on linkers, in order; H or OH if unused. Where a SMILES comes first, the peptide text is derived from it. CO = O=C([*:1])[*:2]

System: processing of PGRN into GRNs
Test: Protease inhibitor panel, PGRN/GRN levels by immunoblot
Assay type: cell-based, human
Settings: HAP1 WT cells, 24 hrs
Experimental: Asterisks (*) denote endogenous, intermediate PGRN cleavage products.
Processing of PGRN into GRNs likely involves one or more lysosomal proteases. To narrow down which class of proteases may be responsible for intracellular PGRN metabolism, HAP1 WT cells were treated with a panel of protease inhibitors and measured PGRN/GRN levels by immunoblot. […] One potential candidate lysosomal cysteine protease is cathepsin L, which was reported to cleave mouse PGRN in vitro.

Structure (SMILES): CC(C)[C@H](NC(=O)[C@H](CCCNC(=N)N)NC(=O)N[C@@H](Cc1ccccc1)C(=O)O)C(=O)N[C@H](C=O)CCCNC(=N)N [antipain] ({Phe-CO}-Arg-Val-Arg-aldehyde)
- GRN levels compared to vehicle treated control: reduced GRN levels
